From patent publication US20230103885A1 come the findings set out here.

Assay [1] addresses anti-BCMA CAR comprising an anti-BCMA scFV. The experiment in a line: flow cytometry on CAR T cells, microscale purified antibody at various dilutions. (In general: A flow cytometer gives signals particle by particle.)
Assay [2] concerns the target anti-CD70 CAR comprising an anti-CD70 scFV. Described as above.
Assay [3] has as its target anti-BCMA CAR comprising an anti-BCMA scFV. Nature of the assay: flow cytometry, dilution series (1:100 to 1:5000) of microscale-purified 29E4B5 on anti-BCMA CAR T cells, readout %CAR+.
Assay [4] has as its target anti-CD70 CAR comprising an anti-CD70 scFV. The experiment in a line: flow cytometry, dilution series (1:100 to 1:5000) of microscale-purified 29E4B5 on anti-CD70 CAR T cells, readout %CAR+.

These are yes or no findings as the source states them, for the method shown.

B1: mouse anti-FMC63-scFv monoclonal antibody 29E4B5 (antibody, mouse IgG1, kappa, V domains shown)
VH: EVKLLQSGGGLVQPGGSLKLSCAASGIDFSRYWMSWVRRAPGKGLEWIGEINLDSSTKNYAPSLKDKFIISRDNAKNTLYLQMSKVRSEDTALYYCARNYVGMDYWGQGTSVTVSS
VL: DIVLTQSPASLAVSLGQRATISCRASKSVSSSDYTYMHWYQQKPGQPPKLLIYLASNLESGVPARFSGSGSGTDFTLNIHPVEEEDAATYYCQHSRELPPTFGGGTKLEIKR
For the molecule B1, the binding result in assay [1] is recorded as “no binding”; in assay [2], “no binding”; in assay [3], “no binding (tested: 1:100 dilution)”; in assay [4], “no binding (tested: 1:100 dilution)”.
